Experimental data reported in patent US20220220206A1, “TREATING CHRONIC LIVER DISEASE” (Mayo Foundation for Medical Education and Research, priority 2019, published 2022).
At least one structure is not confirmed: it was looked up by name or label, or the drawing left a doubt.

Test system: VCAM-1 expression in TSEC
Assay: Palmitate-induced VCAM-1 expression in TSEC
Assay type: cell-based, mouse
Settings: 500 μM PA, 16 hours, real-time qPCR
Method: Transformed mouse liver sinusoidal endothelial cells (TSEC) were obtained. Primary human liver sinusoidal endothelial cells (LSEC) were purchased from ScienCell Research Laboratories (San Diego, Calif.). To yield primary mouse LSECs, cell suspensions obtained with liver collagenase perfusion were centrifuged at 50 g for 2 minutes to remove hepatocytes. The supernatant which includes non-parenchymal cells was subjected to LSEC isolation using CD146 MicroBeads (Miltenyi Biotec, Bergisch Gladbach, Germany) following the manufacture's instruction. […]
Cells were lysed using RIPA buffer (50 mM Tris-HCl, pH 7.4; 1% Nonidet P-40; 0.25% sodium deoxycholate; 150 mM NaCl; 1 mM EDTA with protease inhibitors) followed by centrifugation at 15,000 g for 15 minutes at 4° C. Protein concentrations of the lysates were measured by the Bradford assay method (Sigma-Aldrich). […] Proteins were detected using enhanced chemiluminescence reagents (GE Healthcare, Chicago, Ill.). β-actin and GAPDH protein levels were used as loading controls.
Total RNA was isolated with the RNeasy Mini Kit (Qiagen, Valencia, Calif.) and was reverse transcribed with moloney murine leukemia virus reverse transcriptase and oligo-dT random primers (both from Invitrogen, CA, USA). Quantification of gene expression was performed by real-time PCR using SYBR green fluorescence on a LightCycler 480 instrument (Roche Applied, IN, USA). […]

Oc1c2ccccc2c2c3c(cccc13)N=N2 [SP600125]
PA-induced VCAM-1 mRNA expression: did not alter
